We go through one substance from PMC11535364.

Sequences of proteins named here, by UniProt entry; tags and fusion partners are left off.
UniProt Q9DBL9: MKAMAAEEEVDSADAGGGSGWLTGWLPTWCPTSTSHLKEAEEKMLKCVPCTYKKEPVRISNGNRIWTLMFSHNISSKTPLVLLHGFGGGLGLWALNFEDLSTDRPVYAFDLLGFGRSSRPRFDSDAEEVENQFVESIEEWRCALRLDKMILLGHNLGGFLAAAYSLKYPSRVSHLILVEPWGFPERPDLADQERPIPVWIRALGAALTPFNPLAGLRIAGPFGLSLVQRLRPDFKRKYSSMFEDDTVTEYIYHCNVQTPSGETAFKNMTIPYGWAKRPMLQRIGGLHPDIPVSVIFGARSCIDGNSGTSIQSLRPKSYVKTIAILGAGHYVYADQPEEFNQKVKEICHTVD

Results are given in words; binding and its absence hold for the method and conditions named. In cells and extracts the contact can be indirect. Some results given as binding are weak or reduced against the parent protein; the word gives no strength.

The target of this assay is T1, Perilipin 1 (PLIN1) (mouse (endogenous in osteoblasts from mouse bone marrow MSCs)) (UniProt Q8CGN5).
T1 sequence: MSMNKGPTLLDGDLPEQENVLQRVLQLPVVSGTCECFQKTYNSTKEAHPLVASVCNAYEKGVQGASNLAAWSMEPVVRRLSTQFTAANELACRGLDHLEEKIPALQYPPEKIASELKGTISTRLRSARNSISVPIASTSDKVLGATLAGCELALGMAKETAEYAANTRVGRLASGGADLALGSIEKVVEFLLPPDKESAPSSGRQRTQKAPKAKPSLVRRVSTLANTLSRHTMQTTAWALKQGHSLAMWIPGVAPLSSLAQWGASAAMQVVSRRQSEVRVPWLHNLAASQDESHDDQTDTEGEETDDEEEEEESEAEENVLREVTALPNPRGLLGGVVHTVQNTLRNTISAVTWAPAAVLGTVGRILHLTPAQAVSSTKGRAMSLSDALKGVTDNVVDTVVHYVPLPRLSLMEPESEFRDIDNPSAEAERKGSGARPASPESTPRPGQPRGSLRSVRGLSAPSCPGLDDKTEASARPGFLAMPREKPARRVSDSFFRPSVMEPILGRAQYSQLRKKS
As to the kind of experiment: co-IP; cells lysed in RIPA buffer (50 mM Tris-HCl pH 7.4, 150 mM NaCl, 1% NP-40, 0.5% sodium deoxycholate, 0.1% SDS, 1 mM EDTA); protein A/G agarose beads with anti-PLIN1 or anti-ABHD5 antibody, 4°C; nonspecific IgG as control; Western blot for PLIN1, ABHD5 or ATGL; for ATGL, osteoblasts with and without lipid droplet treatment.

As to ABHD5 (from UniProt Q9DBL9 1-351), the binding entry is “binds”.
